Measurements published in publication PMC7211019.
These are yes or no findings as the source states them, for the method shown. Some binding calls cover weakened binding; strength is not graded here.

By UniProt entry, the sequences of proteins in these tests, tags left out. Residues count along the entry.
UniProt Q9Z340, residues 582-685: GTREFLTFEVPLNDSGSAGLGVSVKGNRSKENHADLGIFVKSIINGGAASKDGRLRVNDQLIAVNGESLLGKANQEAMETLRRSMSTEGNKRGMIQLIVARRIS

Target: T1, FITC-labeled Par6γ PBM peptide (mouse)
T1 sequence (peptide, FITC label (position not stated)): VEEHGPAITL
Assay: fluorescence polarisation; FITC-labeled peptide (~1 μM) titrated with Par3 PDZ domains, 25 °C, buffer A (50 mM Tris pH 8.0, 100 mM NaCl, 1 mM EDTA, 1 mM DTT); both purified

binding: binds
Substance: Par3 PDZ3 (from UniProt Q9Z340 582-685) (domain or fragment)
